Data: patent US20180343839A1
These are yes or no findings as the source states them, for the method shown. For some of these results: Binding seen in cells or lysates may run through a third protein. Some entries that bind do so weakly or less than the wild type.

The chains behind the UniProt entries cited, without tags or fusion partners. Where a name states a change or a piece, a line headed by the entry shows the natural chain unless it says otherwise.
UniProt Q9UKT9: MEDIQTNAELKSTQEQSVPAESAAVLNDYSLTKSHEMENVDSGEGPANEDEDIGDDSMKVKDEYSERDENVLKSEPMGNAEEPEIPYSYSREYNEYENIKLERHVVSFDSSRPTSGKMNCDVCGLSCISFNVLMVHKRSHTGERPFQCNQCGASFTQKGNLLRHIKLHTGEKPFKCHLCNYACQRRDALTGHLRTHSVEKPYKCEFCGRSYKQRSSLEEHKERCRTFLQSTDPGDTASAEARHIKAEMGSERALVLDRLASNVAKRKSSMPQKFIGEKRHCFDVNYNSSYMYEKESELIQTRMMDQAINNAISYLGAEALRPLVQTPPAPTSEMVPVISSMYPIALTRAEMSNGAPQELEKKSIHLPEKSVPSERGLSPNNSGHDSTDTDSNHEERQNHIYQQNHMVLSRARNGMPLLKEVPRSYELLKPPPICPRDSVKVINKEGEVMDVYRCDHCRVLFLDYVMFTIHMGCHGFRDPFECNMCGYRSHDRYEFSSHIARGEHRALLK
UniProt Q96SW2: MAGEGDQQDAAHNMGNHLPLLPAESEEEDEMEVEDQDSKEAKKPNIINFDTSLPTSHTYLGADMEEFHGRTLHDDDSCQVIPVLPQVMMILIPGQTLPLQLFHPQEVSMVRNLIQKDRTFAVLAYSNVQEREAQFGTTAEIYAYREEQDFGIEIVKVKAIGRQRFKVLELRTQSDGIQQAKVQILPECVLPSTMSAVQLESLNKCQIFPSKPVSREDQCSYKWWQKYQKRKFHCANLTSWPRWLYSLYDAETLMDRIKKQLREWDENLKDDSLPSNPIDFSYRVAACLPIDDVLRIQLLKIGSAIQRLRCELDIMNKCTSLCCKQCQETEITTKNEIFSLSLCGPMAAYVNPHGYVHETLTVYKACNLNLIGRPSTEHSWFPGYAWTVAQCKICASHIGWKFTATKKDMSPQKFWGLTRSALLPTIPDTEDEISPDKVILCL

How the values were obtained:
HA-IKZF3 (human) [1] = target: HA-IKZF3 (human) (UniProt Q9UKT9); experiment: anti-FLAG immunoprecipitation from 293T cells (legend of FIG. 9B)
HA-IKZF3 (human) [2] = target: HA-IKZF3 (human) (UniProt Q9UKT9); experiment: anti-FLAG immunoprecipitation from co-transfected 293T cells; lenalidomide added to the lysate
[3] = target: T1, casein kinase 1A1 (CSNK1A1) (human) (UniProt P48729); experiment: co-immunoprecipitation from 293T cells, western blot
T1 sequence: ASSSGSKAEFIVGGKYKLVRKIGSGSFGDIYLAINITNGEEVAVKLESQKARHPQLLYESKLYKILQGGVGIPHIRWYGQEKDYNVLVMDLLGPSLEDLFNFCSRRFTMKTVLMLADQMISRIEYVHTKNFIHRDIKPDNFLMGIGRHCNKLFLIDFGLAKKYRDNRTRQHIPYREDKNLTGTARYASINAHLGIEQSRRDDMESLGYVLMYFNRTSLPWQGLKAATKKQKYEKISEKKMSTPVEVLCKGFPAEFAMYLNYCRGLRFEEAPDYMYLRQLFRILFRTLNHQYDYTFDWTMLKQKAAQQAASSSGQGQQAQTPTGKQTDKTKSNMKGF

Aiolos (IKZF3) (human) [4] = target: Aiolos (IKZF3) (human) (UniProt Q9UKT9); experiment: co-immunoprecipitation with HA-CRBN, western blot, with and without lenalidomide
[5] = target: FLAG-IKZF3 (wildtype) (human) (UniProt Q9UKT9); experiment: co-immunoprecipitation of FLAG-IKZF3 by HA-CRBN from 293T cells, 1 µM lenalidomide
Aiolos (IKZF3) (human) [6] = target: Aiolos (IKZF3) (human) (UniProt Q9UKT9); experiment: HA-CRBN immunoprecipitation from MM1S lysate, SILAC quantitative MS, 1 µM lenalidomide
[7] = target: FLAG-IKZF3 (wildtype) (human) (UniProt Q9UKT9); experiment: HA immunoprecipitation from transfected 293T cells, 1 µM lenalidomide for 1 hour (legend of FIG. 11C)

binding (HA-IKZF3 (human) [1])	binding (HA-IKZF3 (human) [2])	Substance	binding [3]	binding (Aiolos (IKZF3) (human) [4])	binding [5]	binding (Aiolos (IKZF3) (human) [6])	binding [7]
binds	binds	FLAG-CRBN (FLAG-tagged human CRBN) (from UniProt Q96SW2 1-442)	–	–	–	–	–
–	–	HA-CRBN (hemagglutinin (HA)-tagged human CRBN) (from UniProt Q96SW2 1-442)	binds	binds	binds	binds	binds
